Among the data in the supplement of paper PMC11150407 are cell viability values, retold here.

About 45 (2%) of roughly 3,000 compounds showed an effect of 50% or more. Some of the results follow.

This assay has as its system MOLM1 and UCSD/AML1 (averaged). The assay is described as follows: cell viability relative to DMSO control (POC); higher = less growth inhibition. The note with it: 1 µM; 72 h. On the procedure:
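Primary viability screen in the 3q26 EVI1-high AML cell lines MOLM1 and UCSD/AML1, compounds at 1 uM for 72 h. ATP CellTiter-Glo read-out given as percent viable over DMSO control (POC), averaged over duplicates. This mapping covers the TimTec NDL-3000 natural derivative library, whose compounds are identified by TimTec catalogue codes (ST...).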
`COc1ccc(C(=O)Nc2ccc3c(c2)NC(=O)C(C)O3)cc1OC` (stereo not drawn): the cell viability came to 95.8%.

For `COc1ccc(NC(=O)CSc2nc3c(=O)[nH]cnc3n2-c2ccc(C)cc2)cc1`, the cell viability was 102%. `CC(=O)c1ccc2c(c1)OCCCO2`: the cell viability is 93.7%. In the case of `O=c1c(O)c(-c2ccc(F)cc2)oc2cc(Cl)ccc12`, the cell viability is 100%. Next, `CCC1(C)CC(CC(=O)O)(c2ccc(OC)cc2)CCO1` (stereo not drawn): 97.5%; `COc1ccc(-c2cn3c4c(=O)n(C)c(=O)n(C)c4nc3n2-c2ccc(O)cc2)cc1`: 101%. Take `Cc1cc(Oc2ccc3ccccc3c2)nc(SCC(=O)c2ccccc2)n1`: the cell viability was 97.3%. `Cn1c(SCc2ccc(F)cc2Cl)nc2c(=O)[nH]cnc21`: the cell viability came to 89%.

Regarding `N#CC1=C(N)Oc2oc3cc(Cl)ccc3c(=O)c2C1c1ccccc1` (stereo not drawn), the cell viability was 105%. For the compound `Cc1ccc(NC(=O)CSc2nc3c(=O)[nH]cnc3n2-c2ccc(C)cc2)cc1`, the cell viability is 111%. As for `CCOc1cc(C2C(C(=O)OC)=C(C)NC3=C2C(=O)CC(c2ccc(Cl)cc2)C3)cc(Br)c1O` (stereo not drawn), the cell viability turned out to be 99.6%. Regarding `C/C(Cl)=C/Cn1c(N/N=C(/C)c2ccc(Cl)cc2)nc2c1c(=O)[nH]c(=O)n2C`, the cell viability was 103%. In the case of `CCCNC(=O)c1cc(=O)n(CC(=O)Nc2cc(C)ccc2C)c2ccccc12`, the cell viability is 94.8%. For the compound `COc1cc(C2C3CCCCC3(O)CCN2CC(=O)Nc2cc(C)ccc2C)cc(OC)c1OC` (stereo not drawn), the cell viability worked out at 96.7%. In the case of `COc1ccc2c(c1)c(CC(=O)Nc1ccc(Cl)cn1)c(C)n2C(=O)c1ccc(Cl)cc1`, the cell viability stood at 87.1%.

With `COc1cc(OC)cc(C(=O)NCc2cccs2)c1`, the cell viability was 97.9%. For the compound `CCOC(=O)C1=C(N)Oc2c(oc(CO)cc2=O)C1c1cccnc1` (stereo not drawn), the cell viability was 105%. As for `Cc1ccc(C)c(S(=O)(=O)NC(Cc2c[nH]c3ccccc23)C(=O)O)c1` (stereo not drawn), the cell viability worked out at 102%. `Cc1ccc(C(=O)NCCc2c(C)[nH]c3ccc(C)cc23)cc1`: the cell viability was 100%. Turning to `CCN(CC)C(=O)c1cc(=O)n(CC(=O)Nc2c(C)cc(C)cc2C)c2ccccc12`, the cell viability turned out to be 92.9%. Next, `Nc1[nH]c(=O)ncc1F`: 98.4%; `COc1cc(NC(=O)CSc2nc3c(=O)[nH]cnc3n2C)cc(OC)c1`: 93.1%. With `COc1c(I)cc(Oc2c(I)cc(CC(N)C(=O)O)cc2I)cc1I` (stereo not drawn), the cell viability was determined as 89.7%.

In the case of `COCC(=O)OCC1CCC[N+]2(C)CCCCC12` (stereo not drawn), the cell viability stood at 95.7%. With `CCc1ccc(NCCC(=O)c2ccc3c(c2)OCO3)cc1`, the cell viability was 98.9%. `O=C(/C=C/c1ccccc1)c1ccc(O)cc1`: the cell viability was 2.68%. For `O=C(CSc1nc2ccccc2c(=O)[nH]1)c1ccccc1`, the cell viability amounted to 97%.

`COc1cc(C(=O)Nc2nc(-c3ccc4c(c3)OCCO4)cs2)cc(OC)c1OC`: the cell viability came out at 107%. Next, `Nc1nc2ncc(CNc3ccc(C(=O)N[C@H](CCC(=O)O)C(=O)O)cc3)nc2c(=O)[nH]1`: 102%; `CC1(C)CC(=O)C2=C(C1)Nc1ccccc1NC2c1ccc(OCc2cccc(Cl)c2)cc1` (stereo not drawn): 103%; `Cc1cc2c(C(C)C)c(O)c(O)c(C=NCCOc3ccc4oc5ccccc5c4c3)c2c(O)c1-c1c(C)cc2c(C(C)C)c(O)c(O)c(C=NCCOc3ccc4oc5ccccc5c4c3)c2c1O`: 99.7%. As to `CC(=O)OC1C(OC(=O)c2ccc(C)cc2)C(COC(=O)c2ccc(C)cc2)OC1n1cc(I)c(=O)[nH]c1=O` (stereo not drawn), the cell viability was found to be 105%. Consider `Cc1ccc(-c2cc(=O)c3ccccc3o2)cc1`, for which the cell viability amounted to 92.3%. As for `CCc1c(O)c2ccccc2n(Cc2ccccc2)c1=O`, the figure is 97.6%; as for `COc1ccc(C(=O)N2CCN(Cc3cc(=O)oc4cc(C)ccc34)CC2)c(OC)c1`, 93%; as for `O=C(Cn1c(=O)cc(C(=O)NCc2ccccc2)c2ccccc21)Nc1cccc(F)c1`, 102%. Take `CCOc1cc(C2C(C(=O)OCCOC(C)C)=C(C)NC3=C2C(=O)CC(c2ccc(OC)c(OC)c2)C3)ccc1O` (stereo not drawn): the cell viability is 108%.

For `CN(C(=O)CSc1nc(N)cc(=O)[nH]1)c1ccccc1`, the cell viability was found to be 106%. As for `O=C(CSc1nc2ccccc2c(=O)[nH]1)Nc1ccccc1`, the figure is 83.6%; as for `COC(=O)COc1ccc2c(c1)O/C(=C\c1ccc(OC)cc1)C2=O`, 89.3%; as for `CC1CCc2nc(S[C@H]3CC(=O)[C@@H]4OC[C@H]3O4)nc(C(F)(F)F)c2C1` (stereo partly drawn), 39.9%. Regarding `COc1cc(C(=O)O)nc2ccccc12`, the cell viability worked out at 96%. `O=C(O)[C@@H]1Cc2ccccc2N1`: the cell viability came to 122%. On to `NC(CCCC(=O)O)C(=O)O` (stereo not drawn), for which the cell viability turned out to be 96%. Regarding `CCCNC(=O)c1cc(=O)n(CC(=O)Nc2cccc(C)c2)c2ccccc12`, the cell viability was found to be 90.9%. With `COc1cc2c(c(NC(=O)c3nn(-c4ccccc4)nc3C)c1OC)C(=O)OC2`, the cell viability was 99.1%.

On to `Cc1cc2c(C(C)C)c(O)c(O)c(C=NCCOc3ccc4c(c3)OCO4)c2c(O)c1-c1c(C)cc2c(C(C)C)c(O)c(O)c(C=NCCOc3ccc4c(c3)OCO4)c2c1O`, for which the cell viability is 98.1%. As to `COc1cc(/C=C2/SC(=Nc3cccc(Cl)c3Cl)NC2=O)cc2c1OCO2`, the cell viability stood at 103%. Consider `COc1ccc(C(C)=O)c(OC)c1`, for which the cell viability was 101%. With `COC(=O)c1cccc(CNC(=O)CN2CCc3ccccc3C2)c1`, the cell viability was determined as 94.2%.

On to `CCOc1ccc(-c2nc(CSc3nc4c(=O)[nH]cnc4n3C)c(C)o2)cc1`, for which the cell viability was found to be 101%. Regarding `CCCCOc1ccc(C(=O)N/C(=C\c2ccc(Cl)cc2)C(=O)NCCc2c(C)[nH]c3ccccc23)cc1`, the cell viability was found to be 106%. As for `Cc1[nH]c2ccccc2c1CCNC(=O)c1ccccc1NC(=O)c1cccs1`, the figure is 103%; as for `COc1cccc(C2NCCc3c2[nH]c2ccccc32)c1OC` (stereo not drawn), 80.9%; as for `O=c1ccc2cc(S(=O)(=O)N3CCCCC3)ccc2o1`, 108%. As to `COc1cc(C(=O)Nc2ccccc2C(=O)NCc2ccccc2)cc(OC)c1OC`, the cell viability was determined as 85.2%. Turning to `O=C(Nc1cccc(Cl)c1Cl)c1c(O)c2ccccc2[nH]c1=O`, the cell viability came to 98%. Turning to `Cc1ccc2occ(C)c(=O)c2c1`, the cell viability came out at 98.5%. For `CCCNC(=O)c1cc(=O)n(CC(=O)Nc2cccc(Cl)c2)c2ccccc12`, the cell viability was found to be 91.1%. Next, `CCN(CC)c1ccc(C2C3CCCCC3(O)CCN2C(=O)/C=C/c2cc(OC)c(OC)c(OC)c2)cc1` (stereo not drawn): 89.1%; `Cc1ccc(-n2c(SCC(=O)Nc3ccc(F)c(Cl)c3)nc3c(=O)[nH]cnc32)cc1`: 116%.

Regarding `CC[C@H](c1ccc(O)cc1)[C@@H](CC)c1ccc(O)cc1`, the cell viability turned out to be 87.3%. Turning to `N[C@@H](CC(=O)OCc1ccccc1)C(=O)O`, the cell viability worked out at 96.4%. Turning to `Cc1nc2c(nc(SCc3nc(-c4cccc(Cl)c4)oc3C)n2C)c(=O)[nH]1`, the cell viability stood at 108%. Next, `Cc1ccc2c(=O)c(O)c(-c3ccc(F)cc3)oc2c1`: 94%; `CCc1ccc2oc(=O)cc(CN3CCN(Cc4ccc(F)cc4Cl)CC3)c2c1`: 95.1%; `COc1ccc(OC)c(C2Nc3ccccc3NC3=C2C(=O)CC(c2ccccc2Cl)C3)c1` (stereo not drawn): 98.3%.

Turning to `Cn1c2c(c(=O)n(C)c1=O)C1(C(=O)Nc3ccccc31)C(C#N)=C(N)O2` (stereo not drawn), the cell viability was 101%. With `NC(Cc1cccs1)C(=O)O` (stereo not drawn), the cell viability amounted to 97.4%.

Consider `COc1cc(Cc2nccc3cc(OC)c(OC)cc23)c(NC(=O)c2cc(OC)c(OC)c(OC)c2)cc1OC`, for which the cell viability is 95.3%. In the case of `COc1cc(C(=O)N2c3ccccc3C(C)=CC2(C)C)cc(OC)c1OC`, the cell viability is 29.3%. Take `COc1ccc(C)cc1NC(=O)CSc1nc2ccccc2c(=O)[nH]1`: the cell viability came out at 110%.

As to `CCc1nnc(NC(=O)Cc2c(C)n(C(=O)c3ccc(Cl)cc3)c3ccc(OC)cc23)s1`, the cell viability stood at 92.6%. As for `CC(C)OC(=O)C1=C(N)Oc2c(oc(CO)cc2=O)C1c1cccc(Cl)c1Cl` (stereo not drawn), the figure is 99.5%. Next, `COc1ccc(NC(=O)C2Cc3ccccc3CN2S(=O)(=O)c2ccc(C)cc2)cc1` (stereo not drawn): 95.2%. Consider `Cc1cc(F)ccc1NC(=O)Cn1c(=O)cc(C(=O)NCc2ccccc2)c2ccccc21`, for which the cell viability worked out at 87.1%.

For the compound `Nc1nc2c(nc(N/N=C\c3ccc(Br)c([N+](=O)[O-])c3)n2C2OC(CO)C(O)C2O)c(=O)[nH]1` (stereo not drawn), the cell viability turned out to be 101%. Turning to `CCCOc1ccc(C=O)cc1OC`, the cell viability was determined as 103%. Consider `Cc1ccc(CSc2nc3c(=O)[nH]cnc3n2-c2ccc(C)cc2)cc1`, for which the cell viability was found to be 96.6%. Next, `OCC1OC(Nc2ccccn2)C(O)C(O)C1O` (stereo not drawn): 111%; `COc1cc(C)cc(OC)c1O`: 101%; `COc1ccc(C(=O)Nc2ccc(-n3nc(C)c4ccccc4c3=O)cc2)cc1OC`: 100%.

As to `COCCOC(=O)c1c(C)n(CCOc2cccc(Cl)c2Cl)c2c1cc(O)c1ccccc12`, the cell viability came to 99%. In the case of `Cc1oc(-c2ccccc2)cc1C(=O)NC(Cc1c[nH]c2ccccc12)C(=O)O` (stereo not drawn), the cell viability came to 110%. Turning to `COc1cccc2cc(C(=O)NCCc3c(C)[nH]c4ccc(Br)cc34)c(=O)oc12`, the cell viability stood at 111%. On to `COc1cc(C(=O)CC2(O)C(=O)N(Cc3ccc(F)cc3)c3ccccc32)cc(OC)c1OC` (stereo not drawn), for which the cell viability stood at 100%.

As for `CC(=O)N/C(=C\c1ccccc1)C(=O)Nc1cc(C)ccc1C`, the cell viability came to 98.3%. `Cn1c2nc(=O)[nH]c(=O)c-2nc2ccccc21`: the cell viability is 96.9%. Next, `N=C1S/C(=C\c2cc3c(cc2Br)OCO3)C(=O)N1c1ccc(OC(F)(F)F)cc1`: 106%; `CC12CCC(C(=O)OC1=O)C2(C)C` (stereo not drawn): 97.6%; `COc1ccc(C(=O)Nc2ccc3nn(-c4ccccc4)nc3c2)cc1OC`: 96.5%.

Consider `Cc1[nH]c2ccccc2c1CCNC(=O)CCC(=O)c1ccccc1`, for which the cell viability is 99.3%.

For the compound `COc1cc(CNCc2cccc(OC)c2OC)cc(OC)c1`, the cell viability is 96.7%.

Take `O=C(CN1CCc2ccccc2C1)Nc1ccc(Cl)cn1`: the cell viability was 100%. Next, `CCCNC(=O)c1cc(=O)n(CC(=O)Nc2ccc3c(c2)OCO3)c2ccccc12`: 96.3%. As for `C=CCOc1ccc(/C=C2\Oc3ccc(C(=O)OC)cc3C2=O)cc1`, the figure is 99.6%; as for `COc1ccc(NC(=O)Cn2c(=O)cc(C(=O)N3CCCCC3)c3ccccc32)c(OC)c1`, 102%; as for `Cn1c(SCC(=O)Nc2ccc(F)cc2)nc2c(=O)[nH]cnc21`, 106%. In the case of `C=C(C)C1CCC2(C(=O)OC)CCC3(C)C(CCC4C5(C)C/C(=C\c6ccc(Br)cc6)C(=O)C(C)(C)C5CCC43C)C12` (stereo not drawn), the cell viability is 106%. As for `COc1ccc(/C=C/C(=O)c2ccc(O)cc2)cc1COc1ccccc1C1CCCCC1`, the figure is 98.2%. On to `C/C(=C\c1ccccc1)C(=O)O`, for which the cell viability is 111%. With `Cc1ccc(S(=O)(=O)Nc2nc3ccccc3nc2Nc2cccc(/C=C/C(=O)O)c2)cc1`, the cell viability amounted to 106%.

Take `O=c1cc(-c2ccccc2)oc2c(Cl)cc(Cl)cc12`: the cell viability was 112%.
